Laboratory results from PubChem BioAssay AID1794845 (National Center for Advancing Translational Sciences (NCATS), 2023).
Fewer than 10 of roughly 6,900 compounds were called active. The call rests on the fitted dose curve; in most records, active means well fitted curve in the direction sought with a large enough effect; inconclusive means small, poorly fitted or top-dose-only effect, or another doubt; inactive means no such curve, though single readings can be large or run the other way. Some of the results follow.

By UniProt entry, the sequences of proteins in these tests, tags left out. Where a name states a change or a piece, a line headed by the entry shows the natural chain unless it says otherwise.
UniProt C7C422: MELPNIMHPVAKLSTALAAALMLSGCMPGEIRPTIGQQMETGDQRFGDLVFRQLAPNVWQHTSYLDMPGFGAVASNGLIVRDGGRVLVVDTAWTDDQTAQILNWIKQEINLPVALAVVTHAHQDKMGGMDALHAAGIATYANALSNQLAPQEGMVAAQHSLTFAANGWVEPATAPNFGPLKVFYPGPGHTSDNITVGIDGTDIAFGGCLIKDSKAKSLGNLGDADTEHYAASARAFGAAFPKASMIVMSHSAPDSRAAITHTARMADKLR

Molecular target: Metallo-beta-lactamase type 2 (Klebsiella pneumoniae) (UniProt C7C422)
Test: qHTS to identify inhibitors of the New Delhi Metallo-beta-lactamase (NDM): primary screen against the NCATS Gemini Collection; further: % of control where 0% means no effect
Conditions: NDM-1 enzyme, meropenem hydrolysis, absorbance 300 nm; at 38.4 µM (top of the series) unless noted
Method in brief: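 Meropenem hydrolysis (50 uM final) by 2 nM NDM-1 read as 300 nm absorbance after 30 min, following >30 min compound–enzyme preincubation in HEPES pH 7.0 with 1 uM ZnSO4 and 0.01% Tween20.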

SMILES | activity % (negative = inhibition)
CC(=O)NCC1CN(C(=O)NCc2ccc(OC(F)(F)F)cc2)CC12CCCCC2 (configuration not stated) | inactive: -1.48%
O=C(O)CC1(CC(=O)N[C@@H]2C=C(C(=O)N[C@H]3CCCNC3=O)C[C@@H](O)[C@@H]2O)CCCC1 | inactive: 8.07%
CC(=O)c1ccc(NC(=O)N2C[C@@H]3C[C@H](C2)c2ccc(NC(=O)c4ccc(F)cc4)c(=O)n2C3)cc1 | inactive: 0.456%
O=C1OCCC1CCC(=O)N1CCc2c(nc(-c3ccccc3)[nH]c2=O)C1 (configuration not stated) | inactive: 14.7%
CN(C)[C@H]1CCCCN(C(=O)c2cn(CCN3CCNCC3)nn2)C1 | inactive: 3.21%
COc1ccccc1-c1nc2nccc(-c3cc(OC)c(OC)c(OC)c3)n2n1 | inactive: 94.8%
O=C(C1CCC1)N1CCC[C@H]1c1nc(-c2ccc(F)cc2)n[nH]1 | inactive: 2.73%
CCn1cc(CN(C)CC(=O)N2CCCCCC2)ccc1=O | inactive: 1.34%
Cc1nn(C)c(C)c1CCC(=O)NCCc1ncc(C)n1Cc1ccc(F)cc1 | inactive: -0.797%
CN(Cc1ccccc1)Cc1nnc(C(=O)N2CCC[C@@H]2c2cccc(F)c2)n1-c1ccccc1 | inactive: -1.81%
CC(c1n[nH]c(=O)n1CCC(=O)O)n1cccn1 (configuration not stated) | inactive: 34.6%
O=C(NC1CCCCC1)N1C2CCC1CN(c1ccc(C(F)(F)F)cc1)C2 | inactive: -1.15%
CCc1ccc(C(=O)N2CCC([C@@H]3CNC[C@H]3CO)CC2)cc1 | inactive: -2.75%
c1ccc(CCCN2CC[C@H](c3nc4ccccc4s3)C2)cc1 | inactive: -1.98% [at 57.5 µM]
Cc1nc(NC(C)c2nc(-c3cccnc3)no2)c2cccnc2n1 (configuration not stated) | inactive: 39.6%
O=C(Cn1ccc2ccccc2c1=O)N1CCCOC(Cn2cccn2)C1 (configuration not stated) | inactive: 10.7%
O=C1CC2CCCC(C1)N2C(=O)c1cc(F)ccc1Br | inactive: 13.6% [at 57.5 µM]
Cc1ccc(-c2ccccc2CN2CCN([S+](=O)([O-])c3cccc(C(F)(F)F)c3)CC2)cc1Cl | inactive: 7.11%
Cc1nc(-c2cn(C3CCCN(C(=O)C(C)Oc4ccccc4)C3)nn2)no1 (configuration not stated) | inactive: -0.471%
N#Cc1ccc(O[C@@H]2CCOC[C@H]2NC(=O)CCCn2cncn2)cc1 | inactive: -1.01%
O=C(c1cc(CC2(NCc3ccccc3F)COC2)no1)N1CCCCC1 | inactive: 2.52% [at 57.5 µM]

Reprinted from the entries so far, seven compounds:
SMILES | activity % (negative = inhibition)
O=C1OCCC1CCC(=O)N1CCc2c(nc(-c3ccccc3)[nH]c2=O)C1 (configuration not stated) | inactive: 14.7%
CN(C)[C@H]1CCCCN(C(=O)c2cn(CCN3CCNCC3)nn2)C1 | inactive: 3.21%
COc1ccccc1-c1nc2nccc(-c3cc(OC)c(OC)c(OC)c3)n2n1 | inactive: 94.8%
O=C(C1CCC1)N1CCC[C@H]1c1nc(-c2ccc(F)cc2)n[nH]1 | inactive: 2.73%
CCn1cc(CN(C)CC(=O)N2CCCCCC2)ccc1=O | inactive: 1.34%
Cc1nn(C)c(C)c1CCC(=O)NCCc1ncc(C)n1Cc1ccc(F)cc1 | inactive: -0.797%
CN(Cc1ccccc1)Cc1nnc(C(=O)N2CCC[C@@H]2c2cccc(F)c2)n1-c1ccccc1 | inactive: -1.81%

(listing goes on)

SMILES | activity % (negative = inhibition)
COc1ccc(OCC(=O)N2CCN(c3cc(-c4ccccc4)[nH]n3)CC2)cc1 | inactive: 2.9%
O=C1CCC(CNS(=O)(=O)c2cccnc2)CCN1Cc1ccccc1 (configuration not stated) | inactive: -0.459%
CN(CC1CCOC1)S(=O)(=O)Cc1cccc(Cl)c1 (configuration not stated) | inactive: -0.341%
CS(=O)(=O)N1C[C@@H]2OCC(=O)N(Cc3ccncc3)[C@@H]2C1 | inactive: 3.99% [at 57.5 µM]
O=C(NCc1cccnc1)C1CN(S(=O)(=O)C2CC2)CC12CCCCC2 (configuration not stated) | inactive: 5.03%
O=C(NC1CCCC1)c1ccc2c(c1)n(Cc1cccc(F)c1)c(=O)c1ccnn12 | inactive: 2.87%
O=C(c1n[nH]c2c1CCCC2)N1CCc2nc3cc[nH]n3c(=O)c2C1 | inactive: 19.9%
CC1CCN([C@@H]2[C@H](O)[C@H](CO)O[C@@H]2CN(Cc2ccc(F)cc2)Cc2ccc(F)cc2)CC1 | inactive: -1.03%
Cn1c(C(=O)Nc2ccc3c(c2)OCO3)cc2c1CCN(Cc1cccc(F)c1)C2 | inactive: 36.9%
COc1ccc(NC(=O)[C@@H]2C[C@H](c3ccc(F)cc3)N(Cc3ccccc3Cl)C2)cn1 | inactive: 6.46% [at 57.5 µM]
COc1ccccc1C(=O)N1CCCN(c2nnc3ccccn23)CC1 | inactive: 62.8%
O=C1CCN(C(=O)Cc2cccc(F)c2)CCCCCCN1 | inactive: 0.481%
COCc1cccc(C(=O)N2CC[C@@]3(O)CCN(S(C)(=O)=O)C[C@H]3C2)n1 | inactive: -0.329%
COc1ccc([C@H]2C[C@@H](O)[C@@H](O)[C@@H]2NCc2ccc(OC)nc2)cc1 | inactive: -1.63% [at 57.5 µM]
O=C1CN(C(=O)c2cccc(C(F)(F)F)c2)CC(OCc2cccnc2)CN1CC1CCOCC1 (configuration not stated) | inactive: 3.12%
CCC(=O)N(C1CCOCC1)C1CCN(Cc2ccc[nH]2)CC1 | inactive: -1.23%
COc1ccc(C(=O)C2CCCN(Cc3csc(C(C)=O)c3)C2)c(OC)c1 (configuration not stated) | inactive: 9.05%
Cc1nnc2ccc(N3CCN(C(=O)c4ccncc4)CC3)nn12 | inactive: 0.974% [at 57.5 µM]
COCC(=O)Nc1ccc([C@H]2OCC(=O)N[C@@H]2CO)cc1 | inactive: 20.5% [at 57.5 µM]
Cc1ccc(O[C@H]2COCC[C@H]2NC(=O)c2ccc(-c3ccn[nH]3)cc2)cn1 | inactive: 2.68%
CCS(=O)(=O)Nc1ccc(C2(C(=O)NCc3cccc(Cl)c3)CCC2)cc1 | inactive: 4.34%

SMILES | activity % (negative = inhibition)
C=CCCCC(=O)Nc1ccc(NC(=O)C(C)(C)C)c(OC)c1 | inactive: 7.52%
CCC(C)N1Cc2cc(NC(=O)c3ccc([N+](=O)[O-])cc3)ccc2OCC1=O (configuration not stated) | inactive: 15%
CN(C)c1cccc(-c2nc(-c3nnn4c3COC(c3ccccc3Cl)C4)no2)c1 (configuration not stated) | inactive: -2.21%
O=S(=O)(N[C@H]1CO[C@H]2[C@@H]1OC[C@@H]2n1nnnc1Oc1cccc(N2CCOCC2)c1)c1cccs1 | inactive: 0.144%
COCCOC1CCOC2(CCN(C(=O)CCCc3ccccc3)CC2)C1 (configuration not stated) | inactive: -0.361%
O=C(Cc1ccsc1)N1CCC2(CC1)N=C(c1ccccc1)NO2 | inactive: 5.75%
C[S+](=O)([O-])NCCNC(=O)c1cccc(-c2ccsc2)c1 | inactive: 4.94% [at 57.5 µM]
COC(=O)[C@@H]1Cc2ncn(Cc3ccc(Cl)cc3)c2CN1S(=O)(=O)c1cccs1 | inactive: 33.4%
COc1ccc(CN2CCc3ncc(C(=O)NCc4ccc5c(c4)OCO5)n3CC2)cn1 | inactive: 2.05% [at 57.5 µM]
O=S(=O)(c1cccnc1)N1CCC(N(Cc2cccnc2)C2CCOCC2)CC1 | inactive: 5.87%
CCCNC(=O)N(C1CCOCC1)C1CCN(C(=O)CCC(=O)c2ccc(F)cc2)CC1 | inactive: 6.77%
O=C(CCC[C@@H]1[C@H]2CCCN3CCC[C@@H](CN1C(=O)c1ccccc1F)[C@@H]23)N1CCOCC1 | inactive: -1.64%
O=C(NCc1ccc(Cl)cc1)C1CC(=O)N(c2n[nH]c3cccc(F)c23)C1 (configuration not stated) | inactive: -0.524%
Cc1ccc(NC(=O)N2CCC(n3c(C)cnc3-c3cccnc3)C2)cc1C (configuration not stated) | inactive: 6.82%
O=C1NC[C@@H](CCC(=O)N2CCc3ccccc32)N2C[C@@H](NS(=O)(=O)c3ccccc3)C[C@@H]12 | inactive: 0.275%
Cc1cc(C)c(CNC(=O)c2cc(-c3cnn(C)c3C)cc3c2OCCN3C)c(=O)[nH]1 | inactive: 15.4% [at 57.5 µM]
CC(=O)NC1CC2(CCN(C(=O)C3CCN(C)CC3)CC2)c2ccccc21 (configuration not stated) | inactive: 2.68%
O=C(C1CCCC1)N1CC2(CCN(Cc3ccccn3)C2)OCc2ccccc21 (configuration not stated) | inactive: -3.83%
COCC1CN(C)CC12CCN(Cc1ccc(Br)o1)CC2 (configuration not stated) | inactive: 4.1%
COC(=O)[C@@H]1Cc2ncn(Cc3ccc(Cl)cc3)c2CN1Cc1cccnc1 | inactive: 3.48% [at 57.5 µM]
Cc1noc(C)c1-c1cc2c(cc(C)n2C)c(N2CCN(c3ccccn3)CC2)n1 | inactive: 7.74% [at 57.5 µM]

SMILES | activity % (negative = inhibition)
Cc1noc(C)c1[S+](=O)([O-])N1CCC2(CC1)Cc1ccccc1NC2=O | inactive: 12%
CCCC1(CO)CCCN(Cc2cnn(-c3cccc(F)c3)c2)C1 (configuration not stated) | inactive: -1.05%
CC(C)NC(=O)c1ccccc1OCC1CCCN(Cc2ccncc2F)C1 (configuration not stated) | inactive: -9.41%
Cn1nc(C2CC2)cc1NC(=O)C(C)(C)C | inactive: 3.86% [at 57.5 µM]
Cc1noc2c(NC3CCOCC3)cc(-c3ccsc3)nc12 | inactive: 33.1% [at 57.5 µM]
O=C(NCc1ccco1)Nc1cccc(-c2ccc(N3CCCC3)nn2)c1 | inactive: 28.6%
COc1ccc(NC(=O)N2CCc3c(nc4cc(-c5ccccc5)[nH]n4c3=O)C2)c(OC)c1 | inactive: -3.62%
CC(=O)N1CCN(c2cc(-c3noc([C@@H]4CCCN4Cc4ccccc4)n3)ccn2)CC1 | inactive: 3.97% [at 57.5 µM]
Cc1ccc(C(=O)N2CCCCCNC(=O)[C@@H]3CCC[C@@H]32)s1 | inactive: 8.13%
CCN1CCCCC12Cc1ccccc1CN(S(=O)(=O)c1ccccc1)C2 (configuration not stated) | inactive: -0.392%
COc1ccccc1-c1ccnc(N[C@H]2CO[C@H]3[C@@H]2OC[C@@H]3NS(=O)(=O)c2cccs2)n1 | inactive: 9.02%
CC(=O)NCc1cn[nH]c1-c1ccc(Cl)cc1 | inactive: -1.99%
O=C(c1n[nH]c2ccccc12)N1CCC2(CC1)N(c1ccccc1)C(=O)CS2=O (configuration not stated) | inactive: 5.32%
CN(C)CCN(C)[C@H]1[C@@H]2OC[C@@H](O2)[C@@H](NC(=O)Nc2cccc(C#N)c2)[C@@H]1O | inactive: -1.04% [at 57.5 µM]
CCc1nnc([C@@H]2CC(F)(F)CN2C(=O)c2ocnc2C)o1 | inactive: 7.8%
O=C(CCc1ccccc1)NCC1CCCCC(=O)N1 (configuration not stated) | inactive: 21.4%
Cc1cc(C)n(CC(=O)N2CCC3(CC2)CC(CN2CCOCC2)N(C)C3)n1 (configuration not stated) | inactive: -1.29%
CO[C@H](C)[C@H](N)C(=O)N1CCC(c2cc(Cc3ccccc3)[nH]n2)CC1 | inactive: 8.25%
CC1=NOC2(CCN(Cc3ccncc3)CC2)C1 | inactive: -1.02% [at 57.5 µM]
